Assay results: PubChem BioAssay AID1487 (National Center for Advancing Translational Sciences (NCATS), 2009)
Some of the results follow. Shown are side measurements of this screen, not its main read-out; they come without a call. Compounds called inactive in the main read-out are mostly missing here. Words in brackets tell the shape of the fitted curve; partial curves, single points and poor fits give uncertain potencies.

Experiment: qHTS Assay for Modulators of Lamin A Splicing
Conditions: HeLa LMNA splicing GFP/RFP minigene ratio, 48 h
Method in brief: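 S3 HeLa cells stably expressing lamin A-EGFP splicing minigene plus DsRed2, 600 cells/well, 48 h compound exposure at 37C. Laser-scanning cytometry; analysed as GFP (500-530 nm)/RFP (575-640 nm) total intensity ratio; 0.5% DMSO vehicle.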

[1] = measured here: GFP splicing reporter channel
[2] = measured here: RFP viability control channel

SMILES	AC50 [1]	AC50 [2]
COc1cccc(NC(=O)N2CCN(c3ccc(C(F)(F)F)cn3)CC2)c1	7.08 µM [rising, full curve]	11.2 µM [rising, partial curve]
Cc1ccc2cc(C#N)c(NCCNC(=O)C3CCC3)nc2c1C		35.5 µM [rising, single point]
Oc1ccc(Nc2ncnc3scc(-c4ccccc4)c23)cc1	1.58 µM [rising, partial curve, poor fit]	5.62 µM [rising, partial curve, poor fit]
N/C(=N\OC(=O)COc1ccc2ccccc2c1)c1cccnc1	31.6 µM [rising, single point]	31.6 µM [rising, single point]
FC(F)(F)c1cccc(NC(=S)NCC2COc3ccccc3O2)c1 (stereo not given)	3.98 µM [rising, full curve, poor fit]	12.6 µM [rising, partial curve]
Cc1ccc(C)c(N2CCN(S(=O)(=O)c3cccc4cccnc34)CC2)c1	0.00794 µM [rising, full curve, poor fit]	
CCC(CC)NC(=O)/C=C/c1cccc([N+](=O)[O-])c1	2.82 µM [rising, partial curve, poor fit]	
Clc1ccc(Cn2ncc3c(NCc4ccccc4)ncnc32)c(Cl)c1	5.62 µM [rising, single point]	4.47 µM [rising, single point]
CCCOc1ccc(OCCSc2nnc(N)s2)cc1		15.8 µM [rising, single point]
Cc1cc(C)nc(N/N=C/c2ccccc2)n1		2.51 µM [falling, partial curve, poor fit]
COc1cccc(CNC(=O)c2cc3oc4ccccc4c3n2C)c1OC		1.78 µM [rising, full curve]
O=C(c1cccs1)N1CCN(Cc2cccc([N+](=O)[O-])c2)CC1		10 µM [rising, partial curve, poor fit]
O=C(/C=C/c1cccs1)Nc1ccc(N2CCOCC2)c(S(=O)(=O)Nc2ccccc2Cl)c1		8.91 µM [rising, partial curve]
O=C(Nc1ccc(N2CCCCC2)c(Cl)c1)c1cccnc1		15.8 µM [rising, partial curve]
Cc1ccc(N(C)C(=O)C2CCN(S(=O)(=O)c3c(C)noc3/C=C/c3c(C)cc(C)cc3C)CC2)cc1	31.6 µM [rising, single point]	14.1 µM [rising, single point]
CC(=O)c1cnc(SCc2ccc(Cl)cc2)nc1C	0.355 µM [falling, full curve, poor fit]	0.355 µM [falling, full curve, poor fit]
COc1cccc(NC2C=CS(=O)(=O)C2)c1 (stereo not given)		12.6 µM [rising, single point]
Cn1c(CCN2CCCCC2)nc2cc([N+](=O)[O-])ccc21	12.6 µM [falling, partial curve]	

SMILES	AC50 [1]	AC50 [2]
COc1cccc(NC(=O)C2=C(C)C(=O)OC23CCN(C(C)=O)CC3)c1		0.708 µM [falling, full curve]
O=C(Nc1ncc(Cc2cccc(Cl)c2Cl)s1)C1CCCO1 (stereo not given)	6.31 µM [rising, single point]	
O=C(c1cc(-c2ccco2)on1)N1CCN(C(c2ccccc2)c2ccccc2)CC1		12.6 µM [rising, partial curve]
O=C(Nc1ccc(SC(F)(F)F)cc1)c1ccccn1	0.126 µM [falling, full curve]	
Cc1cc2cc(CN(Cc3cccs3)C(=S)NCC3CCCO3)c(=O)[nH]c2cc1C (stereo not given)	17.8 µM [rising, single point]	35.5 µM [rising, single point]
Cc1ccc(OCCCCn2cnc3ccccc32)c(C)c1		10 µM [rising, partial curve]
CC(/C=N/NC(=O)c1cc(-c2ccc(C)s2)[nH]n1)=C\c1ccccc1		3.98 µM [rising, partial curve]
Cc1ccc2nc(-c3sc4nc(C)ccc4c3N)[nH]c2c1		3.55 µM [rising, partial curve, poor fit]
CCN(Cc1ccccc1)S(=O)(=O)c1cc(C(=O)NC2CCCCCC2)ccc1OC	6.31 µM [rising, partial curve, poor fit]	25.1 µM [rising, partial curve]
COc1ccc(-c2c3c(=O)n(C)c(=O)n(C)c3cn2C2CCCCC2)cc1	31.6 µM [rising, single point]	
CCOC(=O)c1cccc(Nc2cc(-c3ccccc3)ncn2)c1	35.5 µM [falling, partial curve, poor fit]	3.98 µM [falling, partial curve, poor fit]
CC(=O)Nc1ccc(S(=O)(=O)NCCSCc2cccc(Cl)c2)cc1		15.8 µM [rising, partial curve]
Cc1nc(-c2ccccc2)sc1CCNC(=O)C(=O)Nc1ccc2c(c1)OCO2	14.1 µM [falling, single point]	11.2 µM [falling, partial curve]
O=C(CC(Cc1ccccc1)C(=O)O)NCCc1ccc2c(c1)OCO2 (stereo not given)		8.91 µM [rising, partial curve, poor fit]
COCCCNC(=O)c1ccc(-n2nc(C(F)(F)F)cc2-c2cccs2)cc1		17.8 µM [rising, single point]
COc1ccc(-c2nc3ccc(NS(=O)(=O)c4ccccc4)cc3o2)cc1	35.5 µM [rising, single point]	31.6 µM [rising, single point]
CSc1ncc(OCc2ccccc2)c(=O)[nH]1	0.141 µM [falling, full curve]	0.0447 µM [falling, full curve, poor fit]
O=C(O)C1CCN(c2ccc(Cl)nn2)CC1	7.08 µM [falling, partial curve]	8.91 µM [falling, full curve, poor fit]

Record cards (already shown).
O=C(Nc1ncc(Cc2cccc(Cl)c2Cl)s1)C1CCCO1 (stereo not given) in the list: AC50 [1]: 6.31 µM [rising, single point]
Cc1ccc2nc(-c3sc4nc(C)ccc4c3N)[nH]c2c1 in the list: AC50 [2]: 3.55 µM [rising, partial curve, poor fit]
CC(=O)Nc1ccc(S(=O)(=O)NCCSCc2cccc(Cl)c2)cc1 in the list: AC50 [2]: 15.8 µM [rising, partial curve]
